For at least one entry, the source does not settle the construct or the ends of the probe. A weaker result is weaker than the reference pair of the same experiment.

The target in this series is XylRA (Vibrio sp. EA2) (UniProt A0A090T8X9). In words: EMSA. The following applies: xylose; EMSA: 25 ng biotin-labelled probe, 0.1-0.5 nmol XylRA in 20 uL EMSA/Gel-shift binding buffer (Beyotime), xylose present, room temperature; salt and pH not stated; recombinant protein; protein details: C-terminal His (pET-22b); label: 5'-biotin on strand 1. On the technique in general: In EMSA bound probe runs differently from free probe, usually more slowly.

For “ACATTTAGCAAATAGGTGACGTTTGGTATCAAAAATCATCGTTGATGGCG (double strand) [PxylT-m1]”, the binding result is on record as “binds more weakly”. Next, “GATCTAATTACCAAATTCGTACATTCAGTTACCAGATAATGTCCTTTCGC (double strand) [Pxyl3]”: “binds more weakly”.

The record behind these values is publication PMC12125979, “Complete xylan utilization pathway and regulation mechanisms involved in marine algae degradation by cosmopolitan marine and human gut microbiota” (The ISME Journal, 2025).
